# Reference: article PMC8546539, “CK2 Phosphorylation of Human Papillomavirus 16 E2 on Serine 23 Promotes Interaction with TopBP1 and Is Critical for E2 Interaction with Mitotic Chromatin and the Viral Life Cycle” (mBio, 2021)
# By UniProt entry, the sequences of proteins in these tests, tags left out. Residues count along the entry.
# UniProt P46934: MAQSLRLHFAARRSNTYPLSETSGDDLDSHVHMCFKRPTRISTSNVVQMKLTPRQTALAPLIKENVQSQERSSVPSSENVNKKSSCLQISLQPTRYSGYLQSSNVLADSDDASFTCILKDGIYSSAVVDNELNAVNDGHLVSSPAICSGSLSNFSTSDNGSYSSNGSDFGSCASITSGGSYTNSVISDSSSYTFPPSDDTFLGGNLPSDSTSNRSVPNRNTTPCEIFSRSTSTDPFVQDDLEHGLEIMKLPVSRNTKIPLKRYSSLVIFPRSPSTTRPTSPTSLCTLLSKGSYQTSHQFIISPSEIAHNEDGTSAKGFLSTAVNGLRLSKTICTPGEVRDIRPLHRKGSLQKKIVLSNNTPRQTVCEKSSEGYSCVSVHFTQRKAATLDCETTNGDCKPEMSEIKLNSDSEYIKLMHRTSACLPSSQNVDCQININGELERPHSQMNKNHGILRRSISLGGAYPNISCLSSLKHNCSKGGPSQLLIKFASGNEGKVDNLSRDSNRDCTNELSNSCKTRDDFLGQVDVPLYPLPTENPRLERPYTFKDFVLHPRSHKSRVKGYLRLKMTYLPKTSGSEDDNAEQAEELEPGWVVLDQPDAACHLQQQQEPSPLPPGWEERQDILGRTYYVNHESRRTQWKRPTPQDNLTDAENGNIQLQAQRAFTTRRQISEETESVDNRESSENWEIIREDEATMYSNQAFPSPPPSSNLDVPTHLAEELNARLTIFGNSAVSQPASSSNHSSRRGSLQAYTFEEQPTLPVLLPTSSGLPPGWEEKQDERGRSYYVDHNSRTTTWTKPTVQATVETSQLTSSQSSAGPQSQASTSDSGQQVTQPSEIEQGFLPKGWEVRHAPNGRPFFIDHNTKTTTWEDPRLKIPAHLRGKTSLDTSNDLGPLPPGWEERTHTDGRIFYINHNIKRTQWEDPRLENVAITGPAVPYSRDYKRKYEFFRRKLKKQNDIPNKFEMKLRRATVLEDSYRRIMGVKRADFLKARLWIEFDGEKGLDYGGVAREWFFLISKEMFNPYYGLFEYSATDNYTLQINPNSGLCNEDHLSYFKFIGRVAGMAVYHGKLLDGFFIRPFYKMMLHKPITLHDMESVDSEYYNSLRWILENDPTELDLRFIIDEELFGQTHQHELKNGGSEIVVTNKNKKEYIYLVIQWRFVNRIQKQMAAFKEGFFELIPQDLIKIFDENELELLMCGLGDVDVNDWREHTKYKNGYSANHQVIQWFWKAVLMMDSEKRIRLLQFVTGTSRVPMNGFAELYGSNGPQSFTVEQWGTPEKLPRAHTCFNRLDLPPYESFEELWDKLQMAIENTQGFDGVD
# UniProt P03120, residues 1-200: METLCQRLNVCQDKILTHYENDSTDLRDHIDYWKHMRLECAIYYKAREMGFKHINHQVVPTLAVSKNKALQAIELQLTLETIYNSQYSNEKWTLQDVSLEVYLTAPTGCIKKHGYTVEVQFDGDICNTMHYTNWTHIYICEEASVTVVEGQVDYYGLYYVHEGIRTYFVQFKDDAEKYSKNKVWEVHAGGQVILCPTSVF
# Results are given in words; binding and its absence hold for the method and conditions named.
# Legend:
# [1] = target: GST-tagged NEDD4 E3 ligase (UniProt P46934); assay: pull-down; GST pull-down as in Fig. 2A following 1 h at 30°C with CK2 enzyme, 200 μM ATP and 30 mM MgCl2, and controls without cofactors or without enzyme; both purified
# [2] = target: GST-tagged NEDD4 E3 ligase (UniProt P46934); assay: pull-down; both purified
Substance,binding [1],binding [2]
His-E2-WT (amino acids 1 to 200) phosphorylated in vitro by CK2 (from UniProt P03120 1-200) (domain or fragment),no binding,–
"His-E2-WT (amino acids 1 to 200), not phosphorylated (from UniProt P03120 1-200) (domain or fragment)",–,"no binding (tested: 11 pmol E2, 0.65 pmol GST-NEDD4)"
